Consider 62 compounds from PubChem BioAssay AID493014 (National Center for Advancing Translational Sciences (NCATS), 2011).

This experiment in a line: qHTS Assay to Find Inhibitors of Chronic Active B-Cell Receptor Signaling. The settings on record: ABC-DLBCL IkBa-CBG/CBR reporter, luminescence ratio (green luciferase fused to IkBa over red control in TMD8 lymphoma cells), 4 h. In a few lines:
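Cell line TMD8 (human ABC DLBCL), stably expressing tet-inducible CBG68-IkBa fusion and CBR; IMDM/0.5% FBS; cpd up to 46 uM; dox induction, 4 h, 37C/5% CO2; dual luminescence; green/red ratio; MG132 control.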
On the technique in general: In qHTS, concentration-response curves come from the screen itself.

The mark [1] stands for this setting: measured here: CBR red luminescence, cell number.
Setting [2] is: measured here: IkBa-CBG green luminescence.

Some of the results follow. Further columns of the screen follow, without active or inactive calls. Compounds called inactive in the main read-out are mostly missing here. The note in brackets gives the kind of curve behind each potency; many fits are weak.

Consider `CCN(CC)C(=O)[C@H]1C[C@H](CC(=O)NCCCN(C)C)C(=O)N2CCc3c([nH]c4ccc(Cl)cc34)[C@]12C`, for which, under setting [1], the AC50 (as a rule, the concentration at which the activity in the assay is half-maximal) was 9.2 µM [falling, partial curve, poor fit].

Take `C[C@H](CO)N1C[C@H](C)[C@@H](CN(C)Cc2ccc(C(=O)O)cc2)Oc2ccc(NS(C)(=O)=O)cc2C1=O`: the concentration at half-maximal activity (AC50) under setting [1] is 20.6 µM [rising, partial curve].

As to `N/C(=N\OC(=O)c1cc(-c2ccccc2)nc2ccccc12)c1ccc(Cl)cc1`, under setting [1], the concentration at half-maximal activity (AC50) was 3.16 µM [rising, partial curve, poor fit].

As to `COc1ccc(NC2=CC(=O)CC(c3ccccc3)C2)c(OC)c1` (centres undefined), the AC50 is 35.5 µM [falling, single point] under setting [1] and 15.8 µM [falling, single point] under setting [2].

For the compound `CC(C(=O)NC1C=CS(=O)(=O)C1)N1C(=O)/C(=C\c2ccccc2)SC1=S` (centres undefined), the AC50 under setting [1] was 7.08 µM [falling, partial curve].

In the case of `CC1CCCN(C(=O)c2ccncc2)C1` (centres undefined), under setting [1], the AC50 is 1.84 µM [rising, full curve, poor fit].

Turning to `COc1ccc(NS(=O)(=O)c2c(F)cc(F)c(Cl)c2F)cc1S(=O)(=O)N1CCCCC1`, the AC50 under setting [1] is 9.2 µM [falling, partial curve, poor fit].

In the case of `CCOC(=O)c1cnc(SC)nc1Sc1ccccc1Cl`, the AC50 under setting [1] was 18.4 µM [rising, single point].

For the compound `COC(=O)C1=C(C)NC(=S)NC1c1ccc(OC(=O)c2ccco2)cc1` (centres undefined), the AC50 under setting [1] was 35.5 µM [rising, single point].

Regarding `O=C(c1ccc2c(c1)OCO2)N(Cc1ccco1)C1(C(=O)NC2CCCCC2)CCCCC1`, the AC50 under setting [1] is 32.6 µM [falling, single point].

With `Cc1ccccc1C(=O)NNC(=O)/C=C\C(=O)O`, under setting [1], the AC50 was 3.16 µM [falling, full curve].

For `COc1ccccc1NC(=O)CSc1nnc(-c2ccccn2)o1`, under setting [1], the AC50 is 2 µM [falling, full curve, poor fit].

As to `COc1ccc2occ(C(=O)c3coc4ccc(O)c(CN(C)C)c34)c2c1`, the AC50 under setting [1] is 7.08 µM [falling, partial curve].

Take `COc1cc(-c2nc(-c3ccccn3)no2)cc(OC)c1OC`: under setting [1], the AC50 is 17.8 µM [falling, single point].

For the compound `Cc1ccc(NC(=O)NC(=O)N(C(C)C)S(=O)(=O)c2ccc(C)cc2)cc1`, the AC50 under setting [1] is 20 µM [rising, single point].

With `CC1=C(C(=O)OCC(Cl)(Cl)Cl)N2C(=O)C(NC(=O)Cc3ccccc3)C2SC1` (centres undefined), the AC50 under setting [1] was 11.2 µM [falling, partial curve].

As for `Cc1ccc(NC(=O)CN(C)C(=O)COC(=O)[C@@H](NC(=O)c2ccccc2F)C(C)C)cc1`, the concentration at half-maximal activity (AC50) under setting [1] is 8.2 µM [rising, partial curve].

`COc1cc(OC)c2c(-c3cccc(-c4sccc4C(C)=O)c3)cc(=O)oc2c1`: the AC50 runs as follows: under setting [1], 18.4 µM [rising, partial curve]; under setting [2], 20.6 µM [falling, partial curve].

`O=C1NCCc2c1[nH]c1c(Cl)ccc(Cl)c21`: under setting [1], the AC50 is 8.91 µM [falling, partial curve].

Consider `COc1ccc(C(=O)O)cc1S(=O)(=O)Nc1cccc(C)c1`, for which the AC50 under setting [1] is 0.164 µM [falling, full curve, poor fit].

Regarding `Cc1ccc(-c2cn(-c3ccccc3)c(SCC(=O)NC3CCS(=O)(=O)C3)n2)cc1C` (centres undefined), the AC50 under setting [1] was 4.11 µM [rising, partial curve, poor fit].

With `COc1cccc(-c2noc(-c3cccs3)n2)c1`, under setting [1], the AC50 was 1.46 µM [rising, partial curve, poor fit].

In the case of `CCCCC(NC(=O)CCc1c(C)c2cc3c4c(oc3c(C)c2oc1=O)CCCC4)C(=O)O` (centres undefined), the concentration at half-maximal activity (AC50) under setting [1] was 0.112 µM [rising, full curve, poor fit].

For `O=C(C(Cc1ccccc1)n1cccc1)N1CCc2ccccc21` (centres undefined), under setting [1], the concentration at half-maximal activity (AC50) was 23.1 µM [falling, single point].

Turning to `C=C1CCC[C@]2(C)C[C@H]3OC(=O)C(CN4CCOCC4)[C@H]3C[C@@H]12` (some centres undefined), the AC50 under setting [1] was 14.1 µM [falling, single point].

In the case of `Cc1ccc(CNc2ccc(N3CCOCC3)cc2)s1`, under setting [1], the AC50 was 29.1 µM [rising, single point].

Consider `COc1ccccc1Nc1nc(-c2sc(N)nc2C)cs1`, for which the AC50 under setting [1] is 7.94 µM [falling, partial curve].

For the compound `CCOc1nc(NCCN2CCOCC2)nc(Nc2ccc(C)cc2)n1`, the AC50 under setting [1] is 0.0891 µM [falling, full curve, poor fit].

In the case of `C[C@H](CO)N1C[C@H](C)[C@@H](CN(C)Cc2ccc(C(=O)O)cc2)Oc2ccc(NC(=O)Cn3cnnn3)cc2C1=O`, the concentration at half-maximal activity (AC50) under setting [1] was 23.1 µM [rising, partial curve, poor fit].

On to `COc1ccccc1Nc1nnc(Cc2ccccc2)c(=O)[nH]1`, for which, under setting [1], the concentration at half-maximal activity (AC50) was 7.94 µM [falling, partial curve, poor fit].

`CCc1nc(Nc2ccc(NC(C)=O)cc2)c2oc3ccccc3c2n1`: the AC50 under setting [1] was 3.55 µM [falling, partial curve, poor fit].

For `CC(=O)Nc1cccc(C(=O)NC(C)c2ccc(S(N)(=O)=O)cc2)c1` (centres undefined), the AC50 under setting [1] is 6.51 µM [rising, single point].

`O=C(Nc1ccc2nccnc2c1)c1cnccn1`: the AC50 under setting [1] is 29.1 µM [falling, single point].

Regarding `COc1ccc(C2CC(c3ccccc3)=NN2C(=O)CN2N=NC3C(=O)N(c4cccc(F)c4)C(=O)C32)cc1` (centres undefined), the half-maximal activity concentration (AC50) under setting [1] was 23.1 µM [rising, single point].

As for `CN(C)/C=C1/N=C(c2ccccc2)OC1=O`, the AC50 under setting [1] is 29.1 µM [rising, partial curve, poor fit].

For the compound `O=C(O)CCCCN1C(=O)/C(=C\c2ccc(OCc3ccccc3)c(OCc3ccccc3)c2)SC1=S`, the AC50 under setting [1] was 35.5 µM [falling, single point].

`COc1ccc(-c2nnc(SCC(=O)OC3CCCCC3)o2)cc1OC`: the concentration at half-maximal activity (AC50) under setting [1] is 35.5 µM [falling, single point].

For the compound `NS(=O)(=O)c1ccc(CCNC(=O)CCCCCn2c(=S)[nH]c3ccc(Br)cc3c2=O)cc1`, the concentration at half-maximal activity (AC50) under setting [1] is 14.1 µM [falling, partial curve].

In the case of `Cc1[nH]c2ccccc2c(=O)c1CN(C)Cc1ccccc1`, the AC50 under setting [1] is 29.1 µM [falling, single point].

`Cc1ccc(OCc2cc(C(=O)N3CCC(C(O)C(C)C)CC3)no2)cc1C` (centres undefined): the AC50 under setting [1] is 25.1 µM [falling, single point].

As for `CCC(=O)N(Cc1cc(=O)[nH]c2ccccc12)c1ccccc1C`, the AC50 under setting [1] was 11.2 µM [falling, single point].

Regarding `CCOC(=O)c1c(C)[nH]c(C)c1S(=O)(=O)NCC1CCN(Cc2cccc(Cl)c2)CC1`, the AC50 under setting [1] is 14.1 µM [rising, partial curve].

`COC(=O)c1ccc(N2CCOCC2)c(F)c1`: under setting [1], the AC50 was 3.66 µM [rising, full curve].

On to `O=C1Nc2ccccc2N(O)N1c1cc(-c2ccccc2Cl)no1`, for which, under setting [1], the half-maximal activity concentration (AC50) is 9.2 µM [falling, partial curve, poor fit].

Consider `C=CCC[C@@H](Cc1ccc(F)cc1)C(=O)OC[C@@H](Cc1c[nH]c2ccccc12)NC(=O)[C@H](CC=C)CC(=O)NCCO`, for which the AC50 under setting [1] was 29.1 µM [falling, single point].

Consider `Cc1cc(-n2c(C)cc(C(=O)CCl)c2C)no1`, for which the AC50 under setting [2] was 35.5 µM [falling, single point].

Consider `COc1ccccc1N1CCN(C(=S)NC(=O)/C=C/c2ccc(F)cc2)CC1`, for which, under setting [1], the AC50 was 22.4 µM [falling, single point].

With `O=C1N/C(=N/Nc2ccccc2)S/C1=C\c1ccccc1`, under setting [1], the AC50 was 3.55 µM [falling, partial curve, poor fit].

Turning to `O=C(OCc1cc(Cl)cc2c1OCOC2)c1cccnc1Cl`, the AC50 under setting [1] is 25.9 µM [rising, partial curve].

Regarding `Cc1ccc(C(=O)c2cc3ccccc3o2)cc1C`, the AC50 under setting [1] was 5.8 µM [rising, full curve, poor fit].

For `CSc1nnc(C2CCCN(CC(=O)Nc3ccccc3N3CCOCC3)C2)n1C(C)C` (centres undefined), under setting [1], the AC50 was 10 µM [falling, partial curve, poor fit].

As for `Cc1nn(CC(O)COc2ccc3c(c2)CCC3)c(C)c1C` (centres undefined), the AC50 under setting [1] is 18.4 µM [rising, partial curve, poor fit].

Consider `Cc1cc(-c2ccccc2)nc(-c2ccccc2)c1C`, for which the AC50 under setting [1] was 17.8 µM [falling, partial curve, poor fit].

In the case of `CCN1C(=O)c2cccc3c(S(=O)(=O)Nc4ccccc4)ccc1c23`, the AC50 under setting [1] is 35.5 µM [rising, single point].

`COc1ccc(NC(=O)CN(Cc2ccco2)Cc2ccco2)cc1S(=O)(=O)N1CCCCC1`: the AC50 under setting [1] is 25.9 µM [falling, single point].

`NC(=O)c1sc2nc3c(c(-c4ccco4)c2c1N)CCC3`: the AC50 under setting [1] is 0.00651 µM [falling, full curve, poor fit].

Take `CN(Cc1ccccc1)c1nc(CN2CCOCC2)nc2scc(-c3ccccc3)c12`: under setting [1], the AC50 is 3.66 µM [rising, single point].

As for `N#C/C(=C(/O)CN1CCCC1)c1nc(-c2ccccc2)cs1`, the AC50 under setting [1] was 8.91 µM [falling, partial curve, poor fit].

In the case of `COc1ccc(Cn2c(C)cc3c(c2=O)C(c2cccs2)C(C#N)=C(N)O3)cc1OC` (centres undefined), the AC50 under setting [1] is 7.31 µM [rising, partial curve, poor fit].

Turning to `O=C(CN1CCCCCC1)Nc1c(Cl)cc(Cl)cc1Cl`, the AC50 under setting [1] is 15.8 µM [rising, single point].

With `O=C(NN=Cc1ccccc1OC(F)F)c1ccc(NS(=O)(=O)c2cccs2)cc1`, the AC50 under setting [1] is 20.6 µM [falling, partial curve, poor fit].

Turning to `COCCN1CCn2c(nc3cc(NC(=O)Cn4nc(C)c5ccccc5c4=O)ccc32)C1`, under setting [1], the AC50 was 1 µM [rising, partial curve, poor fit].
